Common to all, as to assay: EMSA
In general terms: A gel shift assay detects complexes by their altered migration in electrophoresis.

Protein sequences, listed by entry. Tags and fused reporters are not part of them. Lines headed by an entry give the natural chain unless they say otherwise; changes in a name come on top.
UniProt P0AGE0: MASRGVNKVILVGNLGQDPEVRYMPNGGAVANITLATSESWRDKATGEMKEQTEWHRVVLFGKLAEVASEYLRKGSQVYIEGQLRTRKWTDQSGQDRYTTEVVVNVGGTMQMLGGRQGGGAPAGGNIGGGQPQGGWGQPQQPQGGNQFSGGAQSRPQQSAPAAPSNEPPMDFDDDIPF

In data set [1] the test system is B35SSB (Bacillus phage Bam35 (betatectivirus)). The settings on record: EMSA: 50 mM Tris-HCl pH 7.5, 50 mM NaCl, 1 mM DTT, 4% glycerol, 0.1 mg/ml BSA, 0.05% Tween 20, 1 mM EDTA, 10 min at 4 C, 2 nM labeled probe, recombinant protein, protein details: N-terminal Strep-tag II, HRV 3C site (pET-52b(+)).
In data set [2] the test system is B35SSB F48A (Bacillus phage Bam35). The conditions noted are these: EMSA: 50 mM Tris-HCl pH 7.5, 50 mM NaCl, 1 mM DTT, 4% glycerol, 0.1 mg/ml BSA, 0.05% Tween 20, 1 mM EDTA, 10 min at 4 C, recombinant protein, protein details: N-terminal Strep-tag II, label: 5' 32P, single-stranded DNA.
In data set [3] the test system is B35SSB S49A (Bacillus phage Bam35). The settings on record: EMSA: 50 mM Tris-HCl pH 7.5, 50 mM NaCl, 1 mM DTT, 4% glycerol, 0.1 mg/ml BSA, 0.05% Tween 20, 1 mM EDTA, 10 min at 4 C, 2 nM labeled probe, recombinant protein, protein details: N-terminal Strep-tag II, label: 5' 32P, single-stranded DNA.
In data set [4] the test system is B35SSB V124A (Bacillus phage Bam35). The settings on record: EMSA: 50 mM Tris-HCl pH 7.5, 50 mM NaCl, 1 mM DTT, 4% glycerol, 0.1 mg/ml BSA, 0.05% Tween 20, 1 mM EDTA, 10 min at 4 C, recombinant protein, protein details: N-terminal Strep-tag II, label: 5' 32P, single-stranded DNA.
The test system of data set [5] is B35SSB V87A (Bacillus phage Bam35). The conditions noted are these: EMSA: 50 mM Tris-HCl pH 7.5, 50 mM NaCl, 1 mM DTT, 4% glycerol, 0.1 mg/ml BSA, 0.05% Tween 20, 1 mM EDTA, 10 min at 4 C, 2 nM labeled probe, recombinant protein, protein details: N-terminal Strep-tag II, label: 5' 32P, single-stranded DNA.
Data set [6] deals with B35SSB Y150A (Bacillus phage Bam35). The settings on record: EMSA: 50 mM Tris-HCl pH 7.5, 50 mM NaCl, 1 mM DTT, 4% glycerol, 0.1 mg/ml BSA, 0.05% Tween 20, 1 mM EDTA, 10 min at 4 C, 2 nM labeled probe, recombinant protein, protein details: N-terminal Strep-tag II, label: 5' 32P, single-stranded DNA.
The subject of data set [7] is B35SSB Y150F (Bacillus phage Bam35). The conditions noted are these: EMSA: 50 mM Tris-HCl pH 7.5, 50 mM NaCl, 1 mM DTT, 4% glycerol, 0.1 mg/ml BSA, 0.05% Tween 20, 1 mM EDTA, 10 min at 4 C, 2 nM labeled probe, recombinant protein, protein details: N-terminal Strep-tag II, label: 5' 32P, single-stranded DNA.
The target in data set [8] is EcoSSB (Escherichia coli) (UniProt P0AGE0). The settings on record: 1 uM protein, binds ssDNA more efficiently; EMSA: 50 mM Tris-HCl pH 7.5, 50 mM NaCl, 1 mM DTT, 4% glycerol, 0.1 mg/ml BSA, 0.05% Tween 20, 1 mM EDTA, 10 min at 4 C; 2 nM labeled probe; label: 5' 32P on strand 1.
Data set [9] has as its system B35SSB K130A (Bacillus phage Bam35). The settings on record: strongly reduced; EMSA: 50 mM Tris-HCl pH 7.5, 50 mM NaCl, 1 mM DTT, 4% glycerol, 0.1 mg/ml BSA, 0.05% Tween 20, 1 mM EDTA, 10 min at 4 C; 2 nM labeled probe; recombinant protein; protein details: N-terminal Strep-tag II; label: 5' 32P; single-stranded DNA.
Data set [10] concerns B35SSB K156A (Bacillus phage Bam35). The settings on record: strongly reduced; EMSA: 50 mM Tris-HCl pH 7.5, 50 mM NaCl, 1 mM DTT, 4% glycerol, 0.1 mg/ml BSA, 0.05% Tween 20, 1 mM EDTA, 10 min at 4 C; 2 nM labeled probe; recombinant protein; protein details: N-terminal Strep-tag II; label: 5' 32P; single-stranded DNA.
The subject of data set [11] is B35SSB Y117F (Bacillus phage Bam35). The conditions noted are these: mainly unstable complexes (smear); EMSA: 50 mM Tris-HCl pH 7.5, 50 mM NaCl, 1 mM DTT, 4% glycerol, 0.1 mg/ml BSA, 0.05% Tween 20, 1 mM EDTA, 10 min at 4 C; 2 nM labeled probe; recombinant protein; protein details: N-terminal Strep-tag II; label: 5' 32P; single-stranded DNA.
Data set [12] concerns B35SSB Y63A (Bacillus phage Bam35). The settings on record: strongly impaired; EMSA: 50 mM Tris-HCl pH 7.5, 50 mM NaCl, 1 mM DTT, 4% glycerol, 0.1 mg/ml BSA, 0.05% Tween 20, 1 mM EDTA, 10 min at 4 C; 2 nM labeled probe; recombinant protein; protein details: N-terminal Strep-tag II; label: 5' 32P; single-stranded DNA.
Data set [13] deals with B35SSB Y63F (Bacillus phage Bam35). The conditions noted are these: milder defect than Y63A; EMSA: 50 mM Tris-HCl pH 7.5, 50 mM NaCl, 1 mM DTT, 4% glycerol, 0.1 mg/ml BSA, 0.05% Tween 20, 1 mM EDTA, 10 min at 4 C; 2 nM labeled probe; recombinant protein; protein details: N-terminal Strep-tag II; label: 5' 32P; single-stranded DNA.
In data set [14] the target is T1, Φ29 terminal protein (Φ29TP) (Bacillus phage Φ29) (UniProt P03681).
T1 sequence (looked up, limits assumed): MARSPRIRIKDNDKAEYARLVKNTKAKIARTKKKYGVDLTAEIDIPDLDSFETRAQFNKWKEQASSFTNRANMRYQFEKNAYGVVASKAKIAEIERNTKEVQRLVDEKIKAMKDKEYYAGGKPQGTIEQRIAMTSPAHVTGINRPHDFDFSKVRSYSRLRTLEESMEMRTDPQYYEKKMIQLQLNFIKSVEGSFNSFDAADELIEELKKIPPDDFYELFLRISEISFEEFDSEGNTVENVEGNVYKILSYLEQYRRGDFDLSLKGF
The settings on record: 20 nM protein, higher affinity for dsDNA; EMSA: 50 mM Tris-HCl pH 7.5, 50 mM NaCl, 1 mM DTT, 4% glycerol, 0.1 mg/ml BSA, 0.05% Tween 20, 1 mM EDTA, 10 min at 4 C; 2 nM labeled probe; label: 5' 32P; single-stranded DNA.

[15] abbreviates: no stable complexes, 2 nM labeled ….
Where [16] appears, read: clearly weaker than with 50-mer(2).
The mark [17] stands for this setting: less stable than with 50-mer(2).
The mark [18] stands for this setting: mainly unstable complexes (smear), 2 nM labeled probe.
[19] abbreviates: no stable complexes even at high protein, very unstable, 2 nM labeled probe.
The mark [20] stands for this setting: stable complexes, higher protein concentration required.
Setting [21] is: more stable complexes than with 33-mer.

For at least one entry, the source does not settle the construct or the ends of the probe. The comparison behind a weaker result is the experiment's own reference, which may not be listed here. For part of these data: At least one verdict rests on a figure or table, not on a statement of the authors. For part of these data: Where a protein sequence is shown, tags need not be part of it.

Turning to “AAAAAAAAAAAAAAAAAAAAAAAAAAAAAAAAA [poly-dA 33-mer]”, in data set [1] (severely impaired, label: 5' 32P, single-stranded DNA), the binding result was “binds more weakly”.

For “ACTGGCCGTCGTTCTATTGTACTCACTGTGATC [33-mer]”, the binding result in data set [2] (setting [15]), in [3] (setting [16]), in data set [4] (setting [15]), in data set [5] (setting [16]), in data set [6] (setting [17]) and in data set [7] (setting [17]) was “binds more weakly” throughout.

For the sequence “GAAAATAAAAATAAACTGGACAATTAAGGATCCTGTACAAGTCGACGCGG (double strand) [50-mer dsDNA]”, the binding result in data set [1] (very faint shift at 1000:1 protein:dsDNA, insignificant, label: 5' 32P on strand 1) is recorded as “binds more weakly”; in data set [8], “binds more weakly”.

As to “GAAAATAAAAATAAACTGGACAATTAAGGATCCTGTACAAGTCGACGCGG [50-mer]”, the binding result in data set [1] (whole probe (2 nM) bound at 500 nM protein, label: 5' 32P, single-stranded DNA) is listed as “binds”; in [2] (setting [18]) it was “binds more weakly”; in data set [9] it was “binds more weakly”; in data set [10], “binds more weakly”; in data set [3] (strongly impaired) it was “binds more weakly”; in [4] (setting [18]) it was “binds more weakly”. Further, the binding result in data set [5] (mainly unstable complexes (smear)) is on record as “binds more weakly”; in data set [11], “binds more weakly”; in data set [6] (similar to WT) it was “binds”; in data set [7] (similar to WT), “binds”; in [12], “binds more weakly”; in [13], “binds more weakly”. Besides, the binding result in [14] is “binds more weakly”.

Regarding “GATCACAGTGAGTACAATAGAACGACGGCCAGTTGTCTCAATCTAACGGC [50-mer(2)]”, the binding result is “binds” in data set [1] (no difference from the other 50-mer, label: 5' 32P, single-stranded DNA); “binds more weakly” in [2] (setting [19]); “binds more weakly” in [3] (setting [20]); “binds more weakly” in data set [4] (setting [19]); “binds more weakly” in data set [5] (setting [20]); “binds” in data set [6] (setting [21]). For the same sequence, the binding result in data set [7] (setting [21]) is listed as “binds”.

In the case of “TTTTTTTTTTTTTTTTTTTTTTTTTTTTTTTTT [poly-dT 33-mer]”, the binding result in [1] (smeared gradient, partial or unstable binding, label: 5' 32P, single-stranded DNA) was “binds more weakly”.
